This is an account of results in patent US20060156431A1, “L-gulose dependent vitamin C synthesis” (Vlaams Interuniversitair Instituut Voor Biotechnologie VZW, priority 2003, published 2006).

Protein sequences, listed by entry. Tags and fused reporters are not part of them. Residues count along the entry.
UniProt P0A6Y8, residues 2-638: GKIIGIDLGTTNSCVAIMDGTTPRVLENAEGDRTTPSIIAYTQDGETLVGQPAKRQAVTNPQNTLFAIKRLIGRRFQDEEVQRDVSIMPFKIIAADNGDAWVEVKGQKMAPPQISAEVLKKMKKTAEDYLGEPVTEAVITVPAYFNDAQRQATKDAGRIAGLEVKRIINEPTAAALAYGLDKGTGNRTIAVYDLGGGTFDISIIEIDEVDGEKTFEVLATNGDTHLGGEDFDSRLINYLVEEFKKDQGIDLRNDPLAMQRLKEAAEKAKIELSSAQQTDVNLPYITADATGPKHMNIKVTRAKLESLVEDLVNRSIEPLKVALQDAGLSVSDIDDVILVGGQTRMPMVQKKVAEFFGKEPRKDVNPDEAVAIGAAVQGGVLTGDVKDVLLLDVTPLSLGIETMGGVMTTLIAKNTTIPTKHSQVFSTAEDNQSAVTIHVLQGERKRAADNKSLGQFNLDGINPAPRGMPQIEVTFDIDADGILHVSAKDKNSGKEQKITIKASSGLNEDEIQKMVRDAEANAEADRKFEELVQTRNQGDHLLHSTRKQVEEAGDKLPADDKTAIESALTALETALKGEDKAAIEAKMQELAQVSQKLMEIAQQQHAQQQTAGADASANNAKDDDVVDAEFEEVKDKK

No constants are given. Whether binding was seen depends on the method and setting. Binding seen in cells or lysates may run through a third protein. Some results given as binding are weak or reduced against the parent protein; the word gives no strength. Where a sequence is shown, tags or fusion partners need not be part of it.

Experiment [1] has as its target T1, recombinant His-tagged GDP-Man 3″,5″-epimerase of A. thaliana (A. thaliana) (UniProt Q93VR3).
T1 sequence: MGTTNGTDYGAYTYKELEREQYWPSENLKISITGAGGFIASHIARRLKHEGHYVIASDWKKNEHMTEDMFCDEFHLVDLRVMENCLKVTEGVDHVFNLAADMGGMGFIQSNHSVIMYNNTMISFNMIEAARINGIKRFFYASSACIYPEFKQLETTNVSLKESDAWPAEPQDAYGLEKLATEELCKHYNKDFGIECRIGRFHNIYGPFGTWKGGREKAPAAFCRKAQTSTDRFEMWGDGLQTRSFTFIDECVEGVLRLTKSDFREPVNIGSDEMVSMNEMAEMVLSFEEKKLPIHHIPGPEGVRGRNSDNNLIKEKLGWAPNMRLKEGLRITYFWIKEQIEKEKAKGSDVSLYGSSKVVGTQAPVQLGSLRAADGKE
As to the kind of experiment: co-purification.

The target of experiment [2] is T1, recombinant His-tagged GDP-Man 3″,5″-epimerase of A. thaliana (A. thaliana). As to the kind of experiment: co-purification on affinity column (Ni-NTA), SDS-PAGE and MS identification of bands.

For the substance “DnaK, a Hsp70 chaperone of E. coli (from UniProt P0A6Y8 2-638)”, the binding result in experiment [1] and in experiment [2] was “binds” in each case.
